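Whole-cell assay for inhibitors of Mycobacterium tuberculosis growth, labelled Cornell in the record; the read-out is not stated. The concentration is filed as 10 mM, unlikely as a test dose, so the dose is not known. Higher means stronger inhibition (inferred from two other growth screens of the library). About 53,000 compounds were tested under these conditions; 1.7% (about 900) showed 50% or more at least once.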

Each number is a percent effect as filed.
The controls that fix the scale are not given in the record; negative values are as filed.
This is an unselected part of the compounds tested.

| # | structure | percent effect |
|---|---|---|
| 1 | `[H][C@@]12CN(Cc3ccccn3)C(=O)N1CCN(S(=O)(=O)c1ccccc1)C2` | 9.773 |
| 2 | `c1csc(SCC2CN=C(N3CCOCC3)S2)c1` (stereo not drawn) | 39.41 |
| 3 | `Cc1cc(C)c(CNC(=O)NCCCNc2ccccn2)c(=O)[nH]1` | 9.443 |
| 4 | `Cc1ccc(CN2CCN(c3ccc(F)cn3)CC2=O)cc1C` | 39.83 |
| 5 | `CCOc1ccc(C(=O)CCC(=O)N(C)Cc2nc(C)c[nH]2)cc1C` | 18.66 |
| 6 | `Cc1cccc(C(=O)N2Cc3ccccc3C3(CCN(C)CC3)C2)n1` | 10.72 |
| 7 | `[H][C@@]12CCN(Cc3c(C)noc3C)[C@]1([H])CC[C@H](c1nnc(C)o1)O2` | 28.57 |
| 8 | `CC(C)(C)N1CC(c2ncc(-c3ccc4c(c3)OCCO4)[nH]2)CC1=O` (stereo not drawn) | 2.993 |
| 9 | `Cc1ccc(CC(=O)N2CCCC(n3ccnc3C(C)C)C2)cn1` (stereo not drawn) | 1.219 |
| 10 | `CNC(=O)[C@@H](c1ccccc1OC)N1CCC[C@H]1C(=O)N1CCC1.Cl` | 4.264 |
| 11 | `[H][C@]12CC[C@]([H])(CN(c3ccnc(SC)n3)C1)N(CC1CCC1)C2=O` | -0.5062 |
| 12 | `Cc1nc(C)c(C(=O)N2CCc3[nH]nc(COc4ccccc4)c3C2)s1` | 7.648 |
| 13 | `Cc1nc(CN2CCN(CCCc3ccccc3)CC2)no1` | 13.43 |
| 14 | `Cc1ccc(C(=O)NS(=O)(=O)c2ccccc2C)c(=O)[nH]1` | 12.91 |
| 15 | `CC(C(=O)N(C)C)N1CCCN(C(=O)Oc2ccccc2)CC1` (stereo not drawn) | 18.53 |
| 16 | `CNc1ccnc(NCCSc2nccn2C)n1` | 9.636 |
| 17 | `Cc1cc(NC(=O)C(C)C)n(-c2nc(C)c(C)c(=O)[nH]2)n1` | 105.9 |
| 18 | `O=C(CCc1ccccc1)Nc1ncccc1OC(F)F` | -14.35 |
| 19 | `CCO[C@H]1CO[C@@]2(CCCN(S(=O)(=O)c3cccnc3)C2)C1.O=C(O)C(F)(F)F` | 11.9 |
| 20 | `Cc1nccc(CNC(=O)NC(c2ncc(C)s2)C2CC2)n1` (stereo not drawn) | -28.7 |
| 21 | `CC(=O)N1CCc2ncn(C)c2C1C(=O)N1CCCC1.O=C(O)C(F)(F)F` (stereo not drawn) | -35.99 |
| 22 | `CCOc1cccc(CCNC(=O)Cc2cccc(O)c2)n1` | -0.8164 |
| 23 | `CN(C)Cc1cc(=O)n2c(n1)CN(S(=O)(=O)C1CC1)CCC2.O=C(O)C(F)(F)F` | 19.2 |
| 24 | `O=C(c1cccc(C2CCNC2)c1)N1CCC(c2ncc[nH]2)CC1` (stereo not drawn) | 9.815 |
| 25 | `Cc1cc(N2CCN3CCCCC3C2)n2nc(C)c(C)c2n1` (stereo not drawn) | -6.468 |
| 26 | `CCn1cc(CN2CCN(C(=O)c3cc(C)c(C)s3)CC2)c(C)n1` | 46.71 |
| 27 | `Fc1cccc(-c2noc3c2CN(Cc2cncn2C2CC2)CC3)c1` | -16.7 |
| 28 | `CC(=O)N1N=C(c2ccco2)OC1C(=O)N(C)CCc1ccccc1` (stereo not drawn) | -29.52 |
| 29 | `O=C(O)C(F)(F)F.[H][C@@]12CCN(CC(C)C)[C@@]1([H])CCN2S(=O)(=O)c1cn(C)cn1` | -9.541 |
| 30 | `[H][C@@]12C[C@H](NC(=O)c3nc4ccccc4[nH]3)CN1CCN(C)C2` | -19.87 |
| 31 | `Cc1nc(C2CCCN(C(=O)c3cccc4c3OCCO4)C2)no1` (stereo not drawn) | 12.08 |
| 32 | `Cc1sc(CNS(N)(=O)=O)nc1-c1ccc(Cl)cc1` | 9.859 |
| 33 | `CCNC(=O)[C@@H]1C[C@H](NC(=O)c2cncnc2C)CN1CCCSC` | 32.28 |
| 34 | `C=C(C)CN(CC)Cc1nc(C)no1` | -7.826 |
| 35 | `CC(C)N(C)C(=O)CSCc1ccc(S(=O)(=O)N(C)C)o1` | -42.14 |
| 36 | `Cc1cccc(NC(=O)C(C)Oc2ccc3c(c2)OCO3)n1` (stereo not drawn) | 24.82 |
| 37 | `Cc1sc2c(C3CCCNC3)nc(Nc3cccc(F)c3)n2c1C.Cl` (stereo not drawn) | 11.6 |
| 38 | `Cc1csc(C(Cc2ccsc2)NC(=O)CN(C)Cc2ccccn2)n1.Cl` (stereo not drawn) | 68.23 |
| 39 | `CN(C)CC1CN(Cc2cc(Cl)cc3cccnc23)CCO1` (stereo not drawn) | 25.96 |
| 40 | `O=C(O)C(F)(F)F.O=C(O)C(F)(F)F.O=C(O)C(F)(F)F.[H][C@@]12C[C@@H](OCCN3CCCC3)CN1CCN(C(=O)Cc1ccccn1)C2` | -11 |
| 41 | `Cc1occc1C(=O)N1CCC2(CCC2NC(=O)c2ccn(C)c2)CC1` (stereo not drawn) | 21.18 |
| 42 | `Cc1noc(CNc2ccccc2C(=O)N2CCCC(O)C2)n1` (stereo not drawn) | -40.95 |
| 43 | `CC(C)n1ccnc1C1CCCN(Cc2ccc(F)c(F)c2)C1` (stereo not drawn) | -39.15 |
| 44 | `NC(=O)CCC1CCCN(c2ccc3ccc(F)cc3n2)C1` (stereo not drawn) | 4.937 |
| 45 | `CCn1ncnc1C(NC(=O)CC1CCN(C(C)C)CC1)C1CC1` (stereo not drawn) | -12.44 |
| 46 | `O=c1c(CN2CCOCC2)coc(O)c1CN1CCOCC1` | -3.28 |
| 47 | `COCCn1ccc2cc(C(=O)N3CCN(S(C)(=O)=O)CC3)ccc21` | -3.928 |

Some entries from above, unchanged:

Cc1nc(C)c(C(=O)N2CCc3[nH]nc(COc4ccccc4)c3C2)s1 read 7.648%.
CNC(=O)[C@@H](c1ccccc1OC)N1CCC[C@H]1C(=O)N1CCC1.Cl read 4.264%.
[H][C@@]12C[C@H](NC(=O)c3nc4ccccc4[nH]3)CN1CCN(C)C2 read -19.87%.
CC(=O)N1N=C(c2ccco2)OC1C(=O)N(C)CCc1ccccc1 (stereo not drawn) read -29.52%.

Measurements from “University of Dundee, Small-Polar-MMV Screening Library” (2021), ChEMBL document CHEMBL3988442.